Data source: PubChem BioAssay AID504786 (Drosophila RNAi Screening Center, 2011)
In all, the deposit lists about 21,000 reagents; below is a random part of those that have a named target and a result. 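Primary screen; positive scores mean lost reporter signal, so the sign may be inverted from the usual convention.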 Names joined by + are all predicted targets of the reagent. Not all columns of the deposit are shown.

Assay: 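Knock-downs reducing HIF reporter induction by the iron chelator DFO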 (primary screen)
Cells: Drosophila S2 cells with a stable HIF luciferase reporter
Reagent: long dsRNA against Drosophila genes, about 0.2 µg dsRNA per well of a 384-well plate
Time to read-out: three days of knock-down, then 20 h of DFO before reading
Treatment: desferrioxamine (DFO) at 100 µM, an iron chelator that mimics hypoxia, for 20 h
Measured: 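HIF reporter luminescence in cells given 100 µM DFO for 20 h, using the mouse ldh-a hypoxia-response element, scored as per-plate z-scores; higher means greater loss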
Direction: z-score: higher = stronger loss of HIF reporter signal

Nelf-E (Negative elongation factor E) [DRSC10567] → z-score, replicate 1 = -0.5
CG3918 [DRSC18331] → z-score, replicate 1 = 1.4
CG6006 [DRSC13137] → z-score, replicate 1 = -0.3
CG6006 [DRSC15946] → z-score, replicate 1 = -0.3
CG5781 [DRSC02893] → z-score, replicate 1 = -0.3
CG2652 [DRSC18501] → z-score, replicate 1 = -0.2
Tbcd (Tubulin-binding cofactor D) [DRSC00273] → z-score, replicate 1 = -0.3
snoRNA:Me28S-A982b + Uhg4 + snoRNA:Me28S-G3255a + 1 more [DRSC05143] → z-score, replicate 1 = 0
CG5762 [DRSC15869] → z-score, replicate 1 = -0.2
CG31633 [DRSC02275] → z-score, replicate 1 = -0.3
Ucp4B (Uncoupling protein 4B) [DRSC02665] → z-score, replicate 1 = -0.2
CG5756 [DRSC06950] → z-score, replicate 1 = -0.3
CG10713 [DRSC09786] → z-score, replicate 1 = -0.5
Trim9 (Tripartite motif containing 9) [DRSC02242] → z-score, replicate 1 = -0.2
Spn28Da (Serpin 28Da) [DRSC02162] → z-score, replicate 1 = -0.2
CG17472 [DRSC02622] → z-score, replicate 1 = -0.2

Sorted by “z-score, replicate 1” (lowest first): some entries from above.
CG31633 [DRSC02275] → z-score, replicate 1 = -0.3
Ucp4B (Uncoupling protein 4B) [DRSC02665] → z-score, replicate 1 = -0.2
